These are yes or no findings as the source states them, for the method shown. Binding seen in cells or lysates may run through a third protein. These calls come from enrichment with a bait or labelling near it, and not all partners need be listed.
Biological target: T1, Acid ceramidase (ASAH1) (mouse (endogenous in primary pancreatic acinar cells of C57BL/6 mice)) (UniProt Q9WV54)
T1 sequence: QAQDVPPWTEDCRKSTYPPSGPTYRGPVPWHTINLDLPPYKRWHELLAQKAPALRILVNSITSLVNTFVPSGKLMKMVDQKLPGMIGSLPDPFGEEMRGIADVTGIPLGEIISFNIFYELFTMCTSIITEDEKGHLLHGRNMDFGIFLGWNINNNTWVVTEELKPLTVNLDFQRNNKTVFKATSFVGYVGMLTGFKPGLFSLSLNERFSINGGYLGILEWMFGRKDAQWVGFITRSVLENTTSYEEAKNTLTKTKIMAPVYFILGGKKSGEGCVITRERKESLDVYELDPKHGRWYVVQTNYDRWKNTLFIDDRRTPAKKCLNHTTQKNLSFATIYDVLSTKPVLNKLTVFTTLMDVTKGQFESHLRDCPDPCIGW
Assay: affinity purification with mass spectrometry; lysate of primary pancreatic acinar cells (saline or 200 nM cerulein plus 10 ng/mL LPS, 6 h) precipitated with anti-ASAH1 antibody; SDS-PAGE, Coomassie stain; band present in the saline sample cut out and examined by mass spectrometry (n = 1)

Chains of the proteins cited; added tags and fusions are not shown.
UniProt Q80SY4: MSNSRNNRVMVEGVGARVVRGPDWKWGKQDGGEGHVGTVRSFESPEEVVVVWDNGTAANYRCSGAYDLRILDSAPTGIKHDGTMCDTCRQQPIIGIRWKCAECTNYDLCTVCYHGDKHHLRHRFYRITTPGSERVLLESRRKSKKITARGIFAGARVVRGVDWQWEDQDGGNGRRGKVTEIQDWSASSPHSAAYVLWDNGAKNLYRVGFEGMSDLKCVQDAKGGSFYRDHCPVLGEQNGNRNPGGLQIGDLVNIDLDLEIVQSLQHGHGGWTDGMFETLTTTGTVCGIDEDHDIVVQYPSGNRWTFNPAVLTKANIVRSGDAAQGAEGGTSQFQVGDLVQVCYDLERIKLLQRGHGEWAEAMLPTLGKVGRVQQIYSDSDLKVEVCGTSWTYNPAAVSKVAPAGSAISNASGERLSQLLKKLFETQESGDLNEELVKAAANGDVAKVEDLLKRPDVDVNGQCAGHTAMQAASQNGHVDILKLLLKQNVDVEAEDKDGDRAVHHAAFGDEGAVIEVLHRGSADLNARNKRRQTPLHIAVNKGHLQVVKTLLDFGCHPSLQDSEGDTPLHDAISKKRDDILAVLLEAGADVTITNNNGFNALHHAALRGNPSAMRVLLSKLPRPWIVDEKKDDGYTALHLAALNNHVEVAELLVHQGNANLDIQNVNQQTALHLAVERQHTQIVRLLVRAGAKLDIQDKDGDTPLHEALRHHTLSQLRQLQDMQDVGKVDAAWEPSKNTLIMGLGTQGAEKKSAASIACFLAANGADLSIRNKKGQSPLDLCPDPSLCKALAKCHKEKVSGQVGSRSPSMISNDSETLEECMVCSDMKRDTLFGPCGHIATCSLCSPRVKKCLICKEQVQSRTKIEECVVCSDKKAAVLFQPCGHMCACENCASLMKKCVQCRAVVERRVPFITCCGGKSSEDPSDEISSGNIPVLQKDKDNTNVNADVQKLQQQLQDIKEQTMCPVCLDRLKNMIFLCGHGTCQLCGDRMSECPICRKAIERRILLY

E3 ligase Mind bomb homolog 1 (MIB1) (from UniProt Q80SY4 1-1006) (enzyme)
binding: binds
